PubChem BioAssay AID540276 (National Center for Advancing Translational Sciences (NCATS), 2011)
Values joined by “and” are separate entries in the source; they are usually repeats but may differ in a detail not shown here. Equal values may be shown once. Among all 300,000 compounds or so, about 5,400 (1.8%) were called active. The inconclusive results got no clear call from the source; some entries with a clear call stand among them for comparison. Calls come from the whole dose curve; tested in HEK293 cells. Potencies beside an inconclusive call are fits to weak or partial responses and may not hold up.

Assay: qHTS for inhibitors of binding or entry into cells for Marburg Virus
Details: Marburg virus pseudotyped entry inhibition, cell reporter; series mostly up to 37.8 µM
Potency is the fitted concentration of half-maximal effect.

Row | SMILES | Potency
1 | CC1CCCCC1NC(=O)COC(=O)c1ccc2c(c1Cl)C(=O)c1ccccc1C2=O (stereo not given) | inconclusive: 0.206 µM [inhibitor, full curve, poor fit]
2 | O=C(O)C1CCN(c2nc(-c3ccccc3)c3cc(Br)ccc3n2)CC1 | inactive
3 | CC(=O)c1ccc(NC(=O)CCc2c(C)nc3c(c(C)nn3-c3ccc(C)cc3)c2C)cc1 | inconclusive: 12.6 µM [activator, partial curve]
4 | OC(CN1CCN(c2ccccn2)CC1)Cn1c2ccc(Cl)cc2c2cc(Cl)ccc21 (stereo not given) | inconclusive: 35.5 µM [inhibitor, single point]
5 | Cc1cc2ncc(C(=O)Nc3ccsc3C(=O)O)c(C)n2n1 | inactive
6 | COC(=O)C(C)Sc1ncnc2c1c(-c1ccccc1)cn2-c1ccc(OC)cc1 (stereo not given) | inconclusive: 35.5 µM [inhibitor, single point]
7 | COc1ccccc1NC(c1ccc(Cl)cc1)c1nnc(-c2cccc(F)c2)o1 (stereo not given) | inactive
8 | CCC(C)NS(=O)(=O)c1ccc(OCC(=O)NCc2cccnc2)cc1 (stereo not given) | inconclusive: 0.164 µM [inhibitor, full curve, poor fit]
9 | CCC(C)N1C(=O)S/C(=C/c2ccc(Sc3nc4ccccc4[nH]3)o2)C1=O (stereo not given) | inconclusive: 29.1 µM [inhibitor, single point]
10 | CC1C(=O)N2CCCc3cc(NC(=O)C4CC4)cc1c32 (stereo not given) | inactive
11 | CCc1ccc(CNC(=O)c2ccc(NC(=O)N3CC(C)Sc4ccccc43)cc2)cc1 (stereo not given) | inconclusive: 0.562 µM [inhibitor, full curve, poor fit]
12 | CC1CCCCC1NC(=O)Cn1c(=O)cnc2ccccc21 (stereo not given) | inactive
13 | CCN(CC)c1ccc(S(=O)(=O)N2CCOCC2)cc1NC(=O)CN1C(=O)NC2(CCC(C)CC2)C1=O (stereo not given) | inactive
14 | Cc1ccc(C)c(OCCCCn2ccnc2)c1 | inactive
15 | O=C(COc1ccc([N+](=O)[O-])cc1)Nc1ccc(NC(=O)c2ccccc2)cc1 | inactive
16 | COc1ccc(CC(=O)NCCC2=CCCCC2)cc1 | inconclusive: 15.8 µM [activator, single point]
17 | CC12CCC(=O)N1C(C(=O)Nc1cc(C(F)(F)F)ccc1N1CCOCC1)CS2 (stereo not given) | inactive
18 | CCCc1nnc(NS(=O)(=O)c2ccc(C)cc2)o1 | inactive
19 | CNc1nccc(-c2ccc(F)cc2)c1C#N | inactive
20 | O=C(COC(=O)C1CCN(S(=O)(=O)c2ccc(Cl)c(C(F)(F)F)c2)CC1)NCc1ccco1 | inconclusive: 11.2 µM [activator, single point]
21 | O=C(Cc1c(F)cccc1Cl)NCCc1c[nH]c2ccccc12 | inconclusive: 6.31 µM [inhibitor, partial curve]
22 | COc1ccc(-c2nnn(Cc3ccccc3)n2)cc1 | inactive
23 | CCOC(=O)c1nn(-c2ccccc2)c(=O)c(C#N)c1C | inactive
24 | COc1ccc(OC)c(S(=O)(=O)NCC(=O)NC2CCCc3ccccc32)c1 (stereo not given) | inconclusive: 0.398 µM [inhibitor, partial curve, poor fit]

Row | SMILES | Potency
25 | COc1ccccc1CN1CCNC(=O)C1CC(=O)NCCCn1cccn1 (stereo not given) | inactive
26 | CCNC(=O)[C@H]1O[C@@H](n2cnc3c(N)nc(NCCc4ccc(CCC(=O)O)cc4)nc32)[C@H](O)[C@H]1O | inconclusive: 0.0447 µM [activator, full curve]
27 | COc1ccc(CCc2ccc3cc(OC)ccc3n2)cc1 | inconclusive: 12.6 µM [inhibitor, partial curve, poor fit]
28 | COc1cccc(CNCC(O)COc2ccc(C(=O)c3ccccc3)cc2)c1 (stereo not given) | inconclusive: 35.5 µM [inhibitor, single point]
29 | CC1(C)Cc2c(cnn2-c2ccccc2)C(=O)/C1=N\NC(=O)c1ccccc1 | inconclusive: 0.092 µM [activator, full curve, poor fit]
30 | COc1ccc(S(=O)(=O)NCC(=O)N(CC(=O)NCC2CCCO2)c2c(C)cccc2C)cc1 (stereo not given) | inconclusive: 35.5 µM [inhibitor, single point]
31 | COc1cccc2cc(C(=O)NCCc3ccccc3)c(=O)oc12 | inconclusive: 1 µM [inhibitor, partial curve, poor fit]
32 | COc1ccc(CN(C)C(=O)c2ccncc2)c(OC)c1 | inactive
33 | COc1ccc(C2CC(=O)c3cc(-c4nc(-c5ccc(Cl)cc5)c(C)s4)c(=O)[nH]c3C2)cc1 (stereo not given) | inactive
34 | C/C(=N\N=C\c1ccccc1)c1nnn(-c2nonc2N)c1C | inactive
35 | CCCCn1c(-c2csc3c2CCC(C)C3)n[nH]c1=S (stereo not given) | inactive
36 | O=c1c2ccc(Cl)cc2nc(-c2ccc([N+](=O)[O-])cc2)n1O | inconclusive: 14.1 µM [inhibitor, single point]
37 | Cc1cc2ccccc2c(=O)n1CC(=O)NCC(=O)N1CCCC1 | inactive
38 | CC(=NNC(=S)N1CCCCCC1)c1cccc2cccnc12 | inconclusive: 0.0891 µM [inhibitor, full curve, poor fit]
39 | CCN1C(=NCCc2ccccn2)NC(c2cccc(C(F)(F)F)c2)C(C(=O)OC)=C1C (stereo not given) | inactive
40 | COc1ccc(NC(=O)C(C)n2nc(-c3ccc(C)c(C)c3)ccc2=O)cc1OC (stereo not given) | inactive
41 | Cc1ccc(S(=O)(=O)/N=C2/C=C(C3C(=O)CC(C)(C)CC3=O)C(=O)c3ccccc32)cc1 | inconclusive: 35.5 µM [inhibitor, single point]
42 | Cc1cccc(OC(=O)CSc2nnc(CNC(=O)c3ccccc3)o2)c1C | inconclusive: 35.5 µM [inhibitor, single point]
43 | O=C(Nc1ccc(F)cc1)c1oc2ccccc2c1NC(=O)C12CC3CC(CC(C3)C1)C2 | inactive
44 | COc1ccc(S(=O)(=O)NC(C(=O)NCCc2ccccn2)C(C)C)cc1 (stereo not given) | inactive
45 | O=C(Nc1cccc(S(=O)(=O)N2CCCC2)c1)c1ccc2ccccc2n1 | inconclusive: 8.91 µM [inhibitor, partial curve, poor fit]
46 | CN(C)C(=O)N1CCC(C(=O)N2CCCC(C(=O)c3cccc4ccccc34)C2)CC1 (stereo not given) | inconclusive: 1 µM [inhibitor, full curve, poor fit]
47 | O=C(/C=C/c1ccc(Cl)cc1)N(Cc1ccccc1)C1CCS(=O)(=O)C1 (stereo not given) | inconclusive: 0.1 µM [activator, full curve, poor fit]
48 | O=C1CC[C@@H](CN(Cc2ccccc2)Cc2cn[nH]c2-c2cc3ccccc3o2)N1 | inconclusive: 1.41 µM [activator, partial curve, poor fit]

Rewritten as comma-separated lines: part of the list above
Row,SMILES,Potency
42,Cc1cccc(OC(=O)CSc2nnc(CNC(=O)c3ccccc3)o2)c1C,"inconclusive: 35.5 µM [inhibitor, single point]"
43,O=C(Nc1ccc(F)cc1)c1oc2ccccc2c1NC(=O)C12CC3CC(CC(C3)C1)C2,inactive
44,COc1ccc(S(=O)(=O)NC(C(=O)NCCc2ccccn2)C(C)C)cc1 (stereo not given),inactive
45,O=C(Nc1cccc(S(=O)(=O)N2CCCC2)c1)c1ccc2ccccc2n1,"inconclusive: 8.91 µM [inhibitor, partial curve, poor fit]"
46,CN(C)C(=O)N1CCC(C(=O)N2CCCC(C(=O)c3cccc4ccccc34)C2)CC1 (stereo not given),"inconclusive: 1 µM [inhibitor, full curve, poor fit]"
47,O=C(/C=C/c1ccc(Cl)cc1)N(Cc1ccccc1)C1CCS(=O)(=O)C1 (stereo not given),"inconclusive: 0.1 µM [activator, full curve, poor fit]"

(list continues)

Row | SMILES | Potency
49 | CCCCC(=O)OCC(=O)c1[nH]c(C)c(C(=O)OCC)c1C | inactive
50 | C[C@H]1CCC[C@H](O)CCCCCc2cc(O)cc(O)c2C(=O)O1 | inactive
51 | NC(Cc1cc(O)c(O)cc1O)C(=O)O (stereo not given) | active: 11.2 µM and active: 3.97 µM
52 | Cc1ccc(NS(=O)(=O)c2ccc(CCC(=O)N3CCOCC3)cc2)cc1 | inconclusive: 7.08 µM [activator, partial curve, poor fit]
53 | N#Cc1c(-c2ccccc2)c(-c2ccccc2)nn(CC(=O)NNC(=O)Nc2ccc(Cl)c(Cl)c2)c1=O | inconclusive: 35.5 µM [inhibitor, single point]
54 | CN(/N=C/c1cc([N+](=O)[O-])ccc1O)c1ccccc1 | inconclusive: 2.82 µM [activator, partial curve]
55 | Cc1nc2ccccc2n1Cc1ccc(Br)cc1 | inconclusive: 2.82 µM [inhibitor, full curve, poor fit]
56 | CCCn1c(NCc2cc(C)ccc2O)nc2ccccc21 | inconclusive: 23.1 µM [inhibitor, single point]
57 | Cn1ncc(Br)c1C(=O)N1CCOCC1 | inconclusive: 1.41 µM [inhibitor, partial curve, poor fit]
58 | CC(CC(=O)N1CCc2ccccc21)c1ccccc1 (stereo not given) | inactive
59 | Cc1ccccc1N(CC(=O)N1CCCC1)S(=O)(=O)c1ccc(Cl)cc1 | inconclusive: 1 µM [activator, single point]
60 | COc1ccc(CNC(=O)/C(C#N)=C/c2cccc(OC)c2OC)cc1 | inconclusive: 12.6 µM [inhibitor, partial curve, poor fit]
61 | Cc1cc2c(c(SCC(=O)NCc3ccc(Cl)cc3)n1)C(=O)OC2 | inconclusive: 8.91 µM [inhibitor, partial curve, poor fit]
62 | CC(=O)c1ccc(OCCCC(=O)Nc2cccc(S(=O)(=O)N(C)C)c2)cc1 | inconclusive: 11.2 µM [inhibitor, partial curve, poor fit]
63 | Cc1cc(CN(C)C(=O)c2ccc3nc(Cc4ccccc4F)oc3c2)on1 | inconclusive: 1 µM [activator, full curve, poor fit]
64 | CS(=O)(=O)N1CCc2cc(C(=O)Nc3ccc(Cl)cc3)ccc21 | inconclusive: 3.16 µM [activator, single point]
65 | CC1CCc2sc(C(=O)Nc3ccc(C(N)=O)cc3)cc2C1 (stereo not given) | inactive
66 | CC1CC(C)(C)NC(=S)N1CCCC(=O)N1CCN(c2ccccc2F)CC1 (stereo not given) | inconclusive: 5.62 µM [inhibitor, single point]
67 | Cc1ccc(OCCSc2nc(NC(C)C)nc(NC(C)C)n2)cc1 | inconclusive: 20 µM [inhibitor, partial curve, poor fit]
68 | Cc1ccc(S(=O)(=O)Cn2nnnc2C(c2ccccc2)N2CCN(c3ccccc3)CC2)cc1 (stereo not given) | inconclusive: 15.8 µM [inhibitor, single point]
69 | CCc1ccc(NC(=O)NC2CCCCCCC2)cc1 | inconclusive: 0.891 µM [activator, full curve, poor fit]
70 | O=C(NCCNCC(O)COc1ccc(O)cc1)N1CCOCC1 (stereo not given) | inconclusive: 0.0562 µM [inhibitor, full curve, poor fit]
